No constants are given. Whether binding was seen depends on the method and setting. Binding seen in cells or lysates may run through a third protein. Some binding calls cover weakened binding; strength is not graded here.

Sequences of proteins named here, by UniProt entry; tags and fusion partners are left off. Residues count along the entry.
UniProt Q9UMX0: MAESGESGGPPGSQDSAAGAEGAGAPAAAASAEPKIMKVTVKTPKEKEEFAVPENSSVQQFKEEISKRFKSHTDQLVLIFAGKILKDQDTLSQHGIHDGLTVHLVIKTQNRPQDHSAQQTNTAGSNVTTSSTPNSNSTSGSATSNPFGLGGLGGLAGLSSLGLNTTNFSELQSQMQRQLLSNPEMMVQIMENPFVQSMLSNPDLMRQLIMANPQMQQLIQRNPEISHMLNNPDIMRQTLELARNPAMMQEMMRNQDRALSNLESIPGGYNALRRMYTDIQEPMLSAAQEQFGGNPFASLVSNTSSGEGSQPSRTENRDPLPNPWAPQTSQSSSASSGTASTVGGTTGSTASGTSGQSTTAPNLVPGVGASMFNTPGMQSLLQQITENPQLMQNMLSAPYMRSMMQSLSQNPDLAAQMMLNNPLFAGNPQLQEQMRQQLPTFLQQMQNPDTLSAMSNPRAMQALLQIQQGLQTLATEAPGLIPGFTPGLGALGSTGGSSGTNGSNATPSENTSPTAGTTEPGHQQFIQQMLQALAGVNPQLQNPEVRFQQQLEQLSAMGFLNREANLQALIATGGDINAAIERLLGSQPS
UniProt P05496, residues 62-136: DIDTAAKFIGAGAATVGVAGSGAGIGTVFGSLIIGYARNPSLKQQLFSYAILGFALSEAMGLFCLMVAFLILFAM

This passage reports binding results from PMC4942676.

The assay has as its target Myc-UBQLN1 in rescue cells (UniProt Q9UMX0). The experiment in a line: co-IP; detergent-free cytosolic lysates of rescue cells pulse-labeled 30 min with 35S-methionine; Myc-UBQLN1 immunoprecipitated, ATP5G1-HA released with detergent; autoradiography.

As for ATP5G1-HA (from UniProt P05496 62-136), the binding entry is “binds”.
